Measurements published in paper PMC3369903.
Results are given in words; binding and its absence hold for the method and conditions named. In cells and extracts the contact can be indirect. Some entries that bind do so weakly or less than the wild type.

The chains behind the UniProt entries cited, without tags or fusion partners. Residues count along the entry.
UniProt P27512, residues 20-289: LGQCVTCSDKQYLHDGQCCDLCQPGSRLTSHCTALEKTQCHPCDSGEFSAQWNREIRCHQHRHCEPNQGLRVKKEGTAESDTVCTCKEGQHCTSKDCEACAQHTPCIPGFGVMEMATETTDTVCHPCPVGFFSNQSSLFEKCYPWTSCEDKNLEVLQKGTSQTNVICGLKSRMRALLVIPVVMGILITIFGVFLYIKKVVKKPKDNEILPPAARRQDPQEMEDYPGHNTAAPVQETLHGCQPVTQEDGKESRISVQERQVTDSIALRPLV
UniProt O08573: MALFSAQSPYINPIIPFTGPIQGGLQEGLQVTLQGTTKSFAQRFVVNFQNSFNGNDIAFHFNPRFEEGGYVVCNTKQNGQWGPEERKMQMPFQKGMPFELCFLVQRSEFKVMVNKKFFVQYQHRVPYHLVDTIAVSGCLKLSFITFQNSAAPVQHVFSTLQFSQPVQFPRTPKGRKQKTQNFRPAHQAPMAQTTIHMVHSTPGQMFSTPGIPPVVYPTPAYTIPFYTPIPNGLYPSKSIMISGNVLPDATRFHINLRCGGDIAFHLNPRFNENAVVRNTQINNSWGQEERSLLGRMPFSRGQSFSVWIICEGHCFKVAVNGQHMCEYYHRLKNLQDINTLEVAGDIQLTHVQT

Experiments:
[1] = biological target: Recombinant human galectin-9 (human) (UniProt O00182); assay: pull-down; recombinant galectin-9 protein conjugated directly to magnetic beads, incubated with lysates of CD4loCD40+ T cells (isotype or CD40 stimulated overnight); mock treated beads as control; room temperature; western blot for CD40; only the target purified
[2] = biological target: CD40 (mouse (endogenous in NOD and BALB/c splenic CD4loCD40+ T cells)) (UniProt P27512); assay: co-IP; CD40 immunoprecipitated with FGK45-conjugated magnetic beads from lysates of NOD CD4loCD40+ T cells (CD40 stimulated for 0, 30 minutes, 3 hours or overnight); lysis buffer 20 mM Tris-HCl pH 7.5, 2 mM EDTA, 137 mM NaCl, 0.5% Triton X-100; room temperature; western blot for galectin-9
[3] = biological target: CD40 (mouse (endogenous in NOD and BALB/c splenic CD4loCD40+ T cells)) (UniProt P27512); assay: co-IP; CD40 immunoprecipitated with FGK45-conjugated magnetic beads from lysates of BALB/c CD4loCD40+ T cells (control mice, or mice injected with agonistic CD40 antibodies; CD40 stimulated for 0, 30 minutes, 3 hours or overnight); lysis buffer 20 mM Tris-HCl pH 7.5, 2 mM EDTA, 137 mM NaCl, 0.5% Triton X-100; room temperature; western blot for galectin-9

binding [1] | binding [2] | binding [3] | Substance
binds | – | – | CD40 (from UniProt P27512 20-289) (receptor)
– | binds weakly | binds | galectin-9 (endogenous, mouse) (from UniProt O08573 1-353)
